About 7,500 (2.1%) of roughly 360,000 compounds were called active. Inconclusive results, whose numbers are uncertain, are shown with a selection of clear calls. Calls follow the shape of the dose curve; as a rule, active = well fitted inhibition curve with a large enough effect; inconclusive = small, poorly fitted or top-dose-only effect, or effect the other way; inactive = flat fitted curve, though single readings scatter. Where the call is inconclusive, the potency comes from a doubtful curve fit.
Assay: Nrf2 qHTS screen for inhibitors; also: nearly all actives have a fitted effect of over 60% in size
Details: A549 ARE-Fluc reporter, luciferase luminescence, 18-24 h; activity change, negative = inhibition: at 46 µM (top of the series)
Summary of the method: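 Concentration-response testing used A549 ARE_Fluc cells at 5000 cells/well. Following an 18-24 h compound incubation, viability was read by fluorescence (Ex 405/Em 525) and luciferase output by luminescence.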
% is scaled to controls: 0 for no effect and ±100 for the full control effect; potency is read from the fitted curve at half-maximal effect.

Structure (SMILES) | Potency | activity change, negative = inhibition
CC(=O)Nc1ccc(NC(=O)c2ccc(S(=O)(=O)N(C)c3ccccc3)cc2)cc1 | inactive | –
Cc1ccc(CN=c2c([N+](=O)[O-])nn(-c3cccc(C)c3)n2O)cc1 | inconclusive: 29.1 µM [activator, single point] | –
NC(=O)C1CCN(C2=C(NS(=O)(=O)c3ccc(Cl)cc3)C(=O)c3ccccc3C2=O)CC1 | inactive | –
COc1cccc(C(=O)N2N=C(c3ccccn3)CC2(O)C(F)(F)F)c1 (stereo not given) | inconclusive: 1.84 µM [falling, partial curve, poor fit] | –
CSCCC(NC(=O)c1ccccc1)C(=O)NCCCn1nc(C)cc1C (stereo not given) | inactive | –
O=C(N/N=C/c1cc(Cl)ccc1O)C(=O)Nc1ccccc1OC(F)(F)C(F)F | inconclusive: 29.1 µM [falling, single point] | –
CCCOc1ccc(C(=O)N2CCCc3ccccc32)cc1 | inconclusive: 11.6 µM [falling, partial curve, poor fit] | –
CCC1(CC)Cc2ccccc2-c2nc(CCl)[nH]c(=O)c21 | inconclusive: 32.6 µM [falling, single point] | –
Cc1cccc(C)c1OCC(=O)Nc1oc(-c2ccccc2)c(-c2ccccc2)c1C#N | inconclusive: 20.6 µM [falling, single point] | –
CCOC(=O)c1c(C)[nH]c(C2=NNC(=Nc3ccc(OCC)cc3)SC2)c1C | inconclusive: 29.1 µM [falling, single point] | –
CC(C)OC(=O)c1cc2c(ccn2C)n1CC(=O)N(Cc1ccccc1)c1ccccc1 | inconclusive: 3.26 µM [falling, partial curve, poor fit] | –
Cc1cccc(C)c1NC(=O)c1nc(S(=O)(=O)Cc2ccccc2)ncc1Cl | inconclusive: 18.4 µM [falling, partial curve, poor fit] | –
Cc1ccc(OCCCC(=O)N2CCOCC2)cc1 | inactive | –
O=C(CCCn1c(SCC(=O)Nc2ccccc2Cl)nc2ccccc2c1=O)NCC1CCCO1 (stereo not given) | inconclusive: 23.1 µM [falling, partial curve, poor fit] | –
O=C(O)c1cccc(-c2nnn(Cc3ccccc3Cl)n2)c1 | inconclusive: 5.17 µM [activator, partial curve] | –
CCOc1ccc(-n2nc(CO)c(C(=O)NCc3ccc(Cl)cc3)n2)cc1 | inconclusive: 23.1 µM [activator, single point] | –
COc1ccc(C2CC(c3ccc(C)o3)=NN2C(C)=O)cc1 (stereo not given) | inconclusive: 11.6 µM [activator, partial curve, poor fit] | –
CC1CCN(C(=O)CSc2c3c(nc4cc(Cl)ccc24)CCCC3)CC1 | – | inactive: 6.83% [at 9.27 µM]
CCn1c(CC(=O)Nc2cccc(OC)c2)nnc1SCC(=O)N1CCN(c2ccccc2)CC1 | inconclusive: 13 µM [falling, partial curve, poor fit] | –
Cc1c(C(=O)O)[nH]c2c1C(=O)CC(c1ccc(C(C)(C)C)cc1)C2 (stereo not given) | inconclusive: 20.6 µM [activator, single point] | –
Cc1nnsc1S(=O)c1ccc(Cl)c(Cl)c1 (stereo not given) | inactive | –
CCOC(=O)CSc1nc2sc3c(c2c(=O)n1-c1ccc(C)cc1)CCN(C)C3 | inconclusive: 18.4 µM [falling, single point] | –

Structure (SMILES) | Potency | activity change, negative = inhibition
Cc1[nH]c2ccccc2c1C(=O)/C=C/c1ccccc1Cl | inconclusive: 10.3 µM [activator, partial curve, poor fit] | –
Cc1ccc(CN(C(=O)c2cc(=O)c3cc(Cl)c(C)cc3o2)C2CCS(=O)(=O)C2)cc1 (stereo not given) | inconclusive: 29.1 µM [falling, single point] | –
CCCCn1c(SCC(=O)Nc2ccc3c(c2)OCCO3)nnc1C(CC)N(C)C (stereo not given) | inconclusive: 0.103 µM [falling, full curve, poor fit] | –
C[C@@H]1CN([C@@H](C)CO)C(=O)Cc2cc(NC(=O)Nc3ccc(C(F)(F)F)cc3)ccc2O[C@@H]1CN(C)S(=O)(=O)c1ccc(Cl)cc1 | inconclusive: 29.1 µM [falling, single point] | –
O=C1C=CC(=O)N1CCCCCCCCCCN1C(=O)C=CC1=O | active: 25.9 µM | –
CC(=O)c1cccc(OCc2cc(C(=O)N3CC4C[C@@H]5CC3C[C@H](C4)C5)no2)c1 | inconclusive: 29.1 µM [falling, single point] | –
CCCN(C(=O)c1ccc(N(C)S(=O)(=O)c2ccc(C)cc2)cc1)C1CCS(=O)(=O)C1 (stereo not given) | inactive | –
Clc1ccccc1-c1nnc(-c2ccccc2Cl)o1 | inconclusive: 14.6 µM [activator, partial curve] | –
NCCCNC(=O)c1cc2ccccc2[nH]1 | inactive | –
CCOC(=O)N1CCN(S(=O)(=O)c2ccc3c(c2)oc(=O)n3C)CC1 | inactive | –
CCOC(=O)c1cc2c(=O)n3cccc(C)c3nc2n(Cc2ccco2)c1=NC(=O)c1ccccc1 | inactive | –
CCOC(=O)CSc1nc2ccc(NC(=O)CSc3nnnn3Cc3ccccc3)cc2s1 | inactive | –
Cc1ccccc1NC(=O)c1cnn(-c2ccccc2)c1NC(=O)c1ccco1 | inconclusive: 29.1 µM [falling, partial curve, poor fit] | –
Cc1ccc(C)c(-n2nnc(-c3nc(-c4ccc(Cl)cc4)no3)c2N)c1 | inconclusive: 8.2 µM [activator, partial curve] | –
CCSc1nnc(NC(=O)c2ccc3c(c2)OCO3)s1 | inconclusive: 9.2 µM [activator, partial curve] | –
O=C(c1ccncc1)N1CCN(C2CCC(c3ccccc3)CC2)CC1 (stereo not given) | inactive | –
NC(=O)CC(NC(=O)c1ccc(Br)cc1)c1ccc(N2CCN(c3ccccc3)CC2)c([N+](=O)[O-])c1 (stereo not given) | inactive | –
CC(=O)c1ccc(NC(=O)CSc2cn(CC(=O)N3CCCCC3)c3ccccc23)cc1 | inconclusive: 29.1 µM [activator, single point] | –
COc1cc2c(cc1OC)/C(=C/C(=O)c1ccc([N+](=O)[O-])c(C)c1)NCC2 | inconclusive: 20.6 µM [falling, partial curve, poor fit] | –
O=[N+]([O-])c1ccccc1/C=C/C=N/n1c(-c2ccccc2F)n[nH]c1=S | inactive | –
COc1ccc(OC)c(NC(=O)COc2ccc(S(=O)(=O)NC(C)C)cc2)c1 | inconclusive: 20.6 µM [falling, partial curve, poor fit] | –
Cc1onc(-c2ccccc2Cl)c1C(=O)Nc1ccc(OCC(=O)N2CCOCC2)cc1 | inconclusive: 0.116 µM [falling, partial curve, poor fit] | –

One compound at a time, from the list above:
CCOC(=O)N1CCN(S(=O)(=O)c2ccc3c(c2)oc(=O)n3C)CC1 is listed with Potency: inactive
CCOC(=O)CSc1nc2ccc(NC(=O)CSc3nnnn3Cc3ccccc3)cc2s1 is listed with Potency: inactive
NCCCNC(=O)c1cc2ccccc2[nH]1 is listed with Potency: inactive

(next part)

Structure (SMILES) | Potency | activity change, negative = inhibition
O=C(NC(NC(=S)Nc1ccccc1C(=O)O)C(Cl)(Cl)Cl)c1ccco1 (stereo not given) | inactive | –
O=C(COc1ccc(Cl)cc1Br)Nc1cccc(S(=O)(=O)N2CCCC2)c1 | inconclusive: 8.2 µM [falling, partial curve, poor fit] | –
COc1ccc(Oc2ccc(NC(=O)c3ccccc3C)cc2)cc1 | inconclusive: 29.1 µM [falling, single point] | –
COc1ccc(C(=O)N2CCN(S(=O)(=O)c3ccc(C)cc3C)CC2)cc1S(=O)(=O)N1CCOCC1 | inconclusive: 20.6 µM [activator, single point] | –
O=C(O)C1C2CCC(C2)C1C(=O)NCCc1ccccc1 (stereo not given) | inactive | –
Clc1ccc2nc(C3CCN(Cc4nnnn4C4CCCCC4)CC3)[nH]c2c1 | inconclusive: 20.6 µM [falling, single point] | –
Cc1ccc(C)c(NC(=S)Nc2ncccc2C)c1 | inconclusive: 5.8 µM [activator, partial curve, poor fit] | –
CCN1/C(=C\C=C2\C(=O)N(c3ccccc3)C(=S)N2C)Sc2ccccc21 | inactive | –
S=C(c1ccc(-c2ccc(Cl)c(Cl)c2)o1)N1CCOCC1 | inconclusive: 1.84 µM [activator, full curve, poor fit] | –
CCCc1cc(-c2n[nH]c(=S)n2Cc2ccccc2)cs1 | inconclusive: 20.6 µM [falling, single point] | –
CCOC(=O)N1CCN(c2ncnc3c2[nH]c2ccc(F)cc23)CC1 | active: 14.6 µM | –
Cc1c(C(=O)N(Cc2cccc(Br)c2)C2CCS(=O)(=O)C2)oc2ccc(F)cc12 (stereo not given) | inconclusive: 29.1 µM [falling, single point] | –
COc1cc(OC)cc(C(=O)Nc2cc(-c3nc4ccccc4s3)ccc2OC)c1 | inconclusive: 0.731 µM [falling, partial curve, poor fit] | –
O=S(=O)(c1ccc2c(c1)OCO2)N1CCN(c2nc(-c3cccs3)nc3ccccc23)CC1 | inactive | –
O=C(Cc1ccccc1)Nc1ccc2oc(-c3cccnc3)nc2c1 | inactive | –
Fc1ccc(-c2nnc(Cc3ccc(Cl)cc3)o2)cc1 | inconclusive: 8.2 µM [activator, partial curve] | –
COC(=O)C(C)Sc1nc(NCc2ccccc2)nc(N(C)C)n1 (stereo not given) | inconclusive: 4.61 µM [falling, single point] | –
NC(=O)c1nsc(C(=O)N(Cc2ccc(F)cc2)C(C(=O)NCC2CCCO2)c2ccc(F)cc2)c1N (stereo not given) | inconclusive: 18.4 µM [falling, partial curve, poor fit] | –
O=C1C2CC=C(Cl)CC2C(=O)N1CCc1ccccc1 (stereo not given) | inactive | –
Cc1nnc(NC(=O)c2cccc(S(=O)(=O)N3CC(c4ccccc4)CC3=O)c2)s1 (stereo not given) | inconclusive: 10.3 µM [falling, partial curve, poor fit] | –
N#Cc1ccc(C(=O)Nc2ccc(Cl)c(-c3nc4cc(Cl)ccc4o3)c2)c(F)c1 | inconclusive: 14.6 µM [falling, partial curve, poor fit] | –
